PubChem BioAssay AID1259405 | NCATS | 2018

- Purpose: 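Silenced genes that increase secreted GFP made by CHO cells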 (primary screen)
- System: Chinese hamster CHO-K1 ovary cells with stable secreted eGFP expression
- Knock-down reagent: single siRNA against mouse genes, 0.8 pmol siRNA per well (2 µl of 400 nM stock)
- Timing: 3 days
- Measured: 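Per-well intracellular GFP measured by laser scanning cytometry, plus viability from ATP luminescence, each relative to plate median of non-targeting control wells, in %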
- Direction: GFP, % of control: higher = more GFP per well, higher productivity; viability (ATP), % of control: higher = more viable cells (more ATP)
- Rule for the call: 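Called active when intracellular GFP, relative to negative control, is at or above 120%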
Shown is a random part of about 50,000 reagents tested. About 4,000 of them (8%) count as active. 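Mouse siRNA library applied to hamster cells; one well for each siRNA.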 The numbers tell different reagents against one gene apart.

The first 2 records, ahead of the listing:
Igfals #1
- GFP, % of control: 131
- viability (ATP), % of control: 134
- Outcome: active

Igfals #2
- GFP, % of control: 53.7
- viability (ATP), % of control: 65.5
- Outcome: inactive

Results, from the first entry:
Igfals #1
- GFP, % of control: 131
- viability (ATP), % of control: 134
- Outcome: active

Igfals #2
- GFP, % of control: 53.7
- viability (ATP), % of control: 65.5
- Outcome: inactive

Igfals #3
- GFP, % of control: 50.9
- viability (ATP), % of control: 69.8
- Outcome: inactive

Ifrd1 (interferon-related developmental regulator 1) #1
- GFP, % of control: 89.4
- viability (ATP), % of control: 94.5
- Outcome: inactive

Ifrd1 (interferon-related developmental regulator 1) #2
- GFP, % of control: 36.5
- viability (ATP), % of control: 52.5
- Outcome: inactive

Ifrd1 (interferon-related developmental regulator 1) #3
- GFP, % of control: 89
- viability (ATP), % of control: 73.2
- Outcome: inactive

Rrp8 (ribosomal RNA processing 8) #1
- GFP, % of control: 98
- viability (ATP), % of control: 74.3
- Outcome: inactive

Rrp8 (ribosomal RNA processing 8) #2
- GFP, % of control: 142
- viability (ATP), % of control: 82.2
- Outcome: active

Rrp8 (ribosomal RNA processing 8) #3
- GFP, % of control: 34.6
- viability (ATP), % of control: 38.6
- Outcome: inactive

Cend1 (cell cycle exit and neuronal differentiation 1) #1
- GFP, % of control: 50.3
- viability (ATP), % of control: 61.9
- Outcome: inactive

Cend1 (cell cycle exit and neuronal differentiation 1) #2
- GFP, % of control: 96
- viability (ATP), % of control: 86
- Outcome: inactive

Cend1 (cell cycle exit and neuronal differentiation 1) #3
- GFP, % of control: 68.5
- viability (ATP), % of control: 92.6
- Outcome: inactive

Senp8 (SUMO peptidase family member, NEDD8 specific) #1
- GFP, % of control: 107
- viability (ATP), % of control: 84.6
- Outcome: inactive

Senp8 (SUMO peptidase family member, NEDD8 specific) #2
- GFP, % of control: 77.3
- viability (ATP), % of control: 68.8
- Outcome: inactive

B630019K06Rik (RIKEN cDNA B630019K06 gene) #1
- GFP, % of control: 76.6
- viability (ATP), % of control: 56.5
- Outcome: inactive

B630019K06Rik (RIKEN cDNA B630019K06 gene) #2
- GFP, % of control: 78.6
- viability (ATP), % of control: 84.6
- Outcome: inactive

B630019K06Rik (RIKEN cDNA B630019K06 gene) #3
- GFP, % of control: 75.9
- viability (ATP), % of control: 44.1
- Outcome: inactive

Prph2 (peripherin 2) #1
- GFP, % of control: 95.7
- viability (ATP), % of control: 103
- Outcome: inactive

Prph2 (peripherin 2) #2
- GFP, % of control: 74.2
- viability (ATP), % of control: 45.3
- Outcome: inactive

Prph2 (peripherin 2) #3
- GFP, % of control: 82.2
- viability (ATP), % of control: 74.8
- Outcome: inactive

Ehd1 (EH-domain containing 1) #1
- GFP, % of control: 105
- viability (ATP), % of control: 118
- Outcome: inactive

Ehd1 (EH-domain containing 1) #2
- GFP, % of control: 25.7
- viability (ATP), % of control: 32
- Outcome: inactive

Ehd1 (EH-domain containing 1) #3
- GFP, % of control: 77.9
- viability (ATP), % of control: 65.1
- Outcome: inactive

Elac2 (elaC ribonuclease Z 2) #1
- GFP, % of control: 127
- viability (ATP), % of control: 138
- Outcome: active

Elac2 (elaC ribonuclease Z 2) #2
- GFP, % of control: 70.8
- viability (ATP), % of control: 99.2
- Outcome: inactive

Elac2 (elaC ribonuclease Z 2) #3
- GFP, % of control: 134
- viability (ATP), % of control: 130
- Outcome: active

H2-Q2 (histocompatibility 2, Q region locus 2) #1
- GFP, % of control: 38.3
- viability (ATP), % of control: 75.1
- Outcome: inactive

H2-Q2 (histocompatibility 2, Q region locus 2) #2
- GFP, % of control: 90.2
- viability (ATP), % of control: 93
- Outcome: inactive

H2-Q2 (histocompatibility 2, Q region locus 2) #3
- GFP, % of control: 85.3
- viability (ATP), % of control: 96.5
- Outcome: inactive
